Data on one sequence can be found in PMC9657007.

Tags and fusion partners may be left off the protein sequences shown.

The series concerns the target T1, EcxR (UniProt Q2GG40).
T1 sequence (looked up): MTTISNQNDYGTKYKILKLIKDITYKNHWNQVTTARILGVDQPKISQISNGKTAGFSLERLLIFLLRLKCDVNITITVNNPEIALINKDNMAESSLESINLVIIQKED
The experiment in a line: EMSA. As to conditions: poly dI-dC, abolished by cold competitor; EMSA: 10 mM Tris-HCl pH 7.5, 50 mM KCl, 5 mM MgCl2, 2.5% glycerol, 1 mM DTT, 50 ug/mL poly dI-dC, 20 fmol probe, room temperature 25 min (20 min in Fig 4 legend); recombinant protein; residues 1-108; protein details: pET32a fusion tags (rEcxR 29.6 kDa with tags); label: 5' biotin (forward); probe letters rebuilt from the primers and the genome. (Mobility shift assays separate free from complexed probe on a gel.)

Take “ACTACTATTAATTTTCTTGAAAATTTAATATATTAGAATTGGTATTAATAATACTATATAAAACATAAATGGAAAAAATTACCACAAACATTTAAACACAACATTTAAAGTGTTGTTATTACCAAATACTTACTAAATTTTGTATTTATGATAATATCATAATAGTTTTACTAAAAAAAATTACAAAAAATGTTATTATCTACTTAAAATTGCAGATTAATTAATAATGCTTTAAGTAATAACAAATAAATTTAGTTGACTATATGAACTAACCTAATATCCTAAATCTTGTTCAGTTATGTAAAATTAGGAGTTAAAATTA (double strand) [hup promoter EMSA probe]”: the binding result was “binds”.
